For 37 compounds, cell number change and AC50 results are on record in PubChem BioAssay AID2685 (National Center for Advancing Translational Sciences (NCATS), 2010).

The structures appear in SMILES notation. This is one part of the list. Shown are side measurements of this screen, not its main read-out; they come without a call. Most of these compounds were active or inconclusive in the main read-out, so they are no random draw. The note in brackets gives the kind of curve behind each potency; many fits are weak.

A short description of this assay: qHTS Assay for Lipid Storage Modulators in Drosophila S3 Cells.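 As to cell number change: cells counted by Cell Tracker Red CMTPX staining in the red channel.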 As to conditions: BODIPY lipid droplet fluorescence, 18-24 h; for cell number change: measured here: cell count max response, cells fed with added oleic acid. In short, it runs like this:
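Drosophila S3 cells got compounds at several concentrations plus oleic acid (400 uM solution). Laser-scanning cytometry with 488 nm excitation read lipid droplets at 500-530 nm and cells at 575-640 nm. Percent activity was relative to 20 uM Triacsin C.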

Setting [1] is: measured here: cell number channel AC50, cells fed with added oleic acid.
Setting [2] is: measured here: lipid fluorescence (Fed channel) AC50, cells fed with added oleic acid.

As a reminder, the AC50 is the midpoint of the concentration-response curve, whichever way the signal moves. A lower AC50 goes with activity at low concentration. With `CCOC(=O)c1[nH]c(C)c(/C(O)=C2\C(=O)C(=O)N(CCCN(C)C)C2c2ccncc2)c1C` (configuration not stated), the cell number change was -12.5%. In addition, the AC50 under setting [1] is 0.82 µM [falling, full curve, poor fit]. In the case of `CC(=O)N1CCC(N(C(=O)Nc2ccc(C)c(C)c2)C2CCCC2)CC1`, the AC50 under setting [2] is 6.51 µM [rising, single point]. With `Cc1ccc(-c2cc(O)cc3sc(=O)oc23)cc1C`, the cell number change is -41.9%. In the case of `O=[N+]([O-])c1cc(S(=O)(=O)N2CCCC2)ccc1NN=C1CCCC1`, the cell number change turned out to be 77.3%. For the same compound, under setting [1], the AC50 was 16.4 µM [rising, partial curve]. The AC50 under setting [2] was 0.411 µM [rising, full curve].

For the compound `COc1cc(NC(=O)COc2c(C)cc(C)cc2[N+](=O)[O-])c(OC)cc1Cl`, the cell number change worked out at 7.17%. The AC50 under setting [2] was 0.291 µM [rising, partial curve]. In the case of `CC1CCCCC12NC(=O)N(CC(=O)c1ccc[nH]1)C2=O` (configuration not stated), the cell number change turned out to be 13.7%. For `COc1cccc(NC(=O)C2CC(=O)N=C(N)S2)c1` (configuration not stated), the cell number change was 2.27%. Take `CC(=O)c1ccc(NS(=O)(=O)c2cc3c(cc2C)N(C)CCO3)cc1`: the cell number change was determined as 23.9%. The AC50 under setting [2] is 10.3 µM [rising, partial curve]. For the compound `CCOc1ccc2[nH]c(=O)c(C(c3nnnn3Cc3ccco3)N3CCC(C)CC3)cc2c1` (configuration not stated), the AC50 under setting [2] was 7.31 µM [rising, partial curve]. Take `N#Cc1ccc(/C=C/C(=O)c2cccnc2)cc1`: the cell number change was -57%.

Take `Nc1nnc(CC(c2ccccc2)c2ccccc2)s1`: the cell number change was 50.7%. The AC50 under setting [1] was 6.51 µM [rising, partial curve].

As to `CCCCN(CCCC)S(=O)(=O)c1ccc(NS(=O)(=O)c2ccc(NC(C)=O)cc2)cc1`, the cell number change stood at 45.1%. In addition, under setting [1], the AC50 was 1.64 µM [rising, partial curve]. In addition, under setting [2], the AC50 is 18.4 µM [rising, partial curve]. In the case of `C=CCNC(=O)c1cccc(OC2CCN(CC(C)(C)C)CC2)c1`, the cell number change is -6.2%. Also, the AC50 under setting [2] was 3.66 µM [falling, full curve]. With `FC(F)(F)c1cnc2c(-c3ccc(Cl)cc3Cl)noc2c1`, the cell number change was determined as 17.3%. Also, the AC50 under setting [1] was 0.0517 µM [rising, full curve, poor fit]. In addition, the AC50 under setting [2] is 1.46 µM [rising, partial curve]. As for `CCCN(C(=O)Cn1nc(C)c([N+](=O)[O-])c1C)c1c(N)n(Cc2ccccc2)c(=O)[nH]c1=O`, the cell number change was -38.1%. Besides, the AC50 under setting [1] was 5.17 µM [falling, full curve, poor fit]. Also, under setting [2], the half-maximal activity concentration (AC50) is 5.8 µM [falling, full curve]. Regarding `COc1ccc(OC)c(-n2c(CNC3CCN(Cc4ccccc4)CC3)nc3ccccc3c2=O)c1`, the cell number change was determined as 4.28%. Further, the AC50 under setting [2] is 0.146 µM [falling, full curve, poor fit].

Take `COc1ccc([C@@H]2[C@H]3CN(C(C)=O)CC=C3C(C#N)=C(N)C2(C#N)C#N)c2ccccc12`: the cell number change is -5.2%. Further, the AC50 under setting [2] is 6.51 µM [rising, partial curve].

Regarding `COc1cccc(CNc2ccc3[nH]c(=O)[nH]c3c2)c1OCc1ccccc1F`, the cell number change is -38.2%. Moreover, the AC50 under setting [1] is 4.11 µM [falling, partial curve]. In addition, the AC50 under setting [2] is 14.6 µM [falling, single point]. For the compound `COc1ccc(C(=O)N(CN2CCCC2=O)c2cc(C)on2)cc1OC`, the cell number change is -11.2%. Also, under setting [2], the AC50 was 0.164 µM [rising, full curve, poor fit]. Consider `C/C(=N\NC(=O)c1cc(-c2cccs2)nc2ccccc12)c1ccccn1`, for which the AC50 by setting is: under setting [1], 0.291 µM [rising, partial curve]; under setting [2], 0.103 µM [rising, single point]. `CN(CC(=O)Nc1cccc(F)c1)C(=O)CCCNC(=O)c1ccc(Cl)cc1`: the cell number change is 72.5%. Moreover, the AC50 under setting [1] is 16.4 µM [rising, single point].

For the compound `CS(=O)(=O)c1ncc(Cl)c(C(=O)Nc2ccc3ccccc3c2)n1`, the cell number change is -15.3%.

As to `CCC(=O)c1cn(CC(=O)Nc2cccc(OC)c2)c2ccccc12`, the cell number change stood at 99.4%. Besides, under setting [1], the AC50 was 29.1 µM [rising, single point]. Take `O=C1NC(c2ccccc2Br)=N/C1=C\c1ccco1`: the cell number change is 18.6%. In addition, the AC50 under setting [2] is 29.1 µM [rising, single point].

As to `N/C(=N\OC(=O)c1ccccc1)c1ccncc1`, the cell number change amounted to 25.2%. As for `O=[N+]([O-])c1ccc(-c2csc(N3CCCCCC3)n2)cc1`, the cell number change worked out at 9.8%. Also, the AC50 under setting [2] is 29.1 µM [falling, single point]. With `Cc1c(C(=O)OCC(=O)N(C)Cc2ccccc2)oc2ccccc12`, the cell number change was -8.56%. For the same compound, under setting [2], the AC50 was 20.6 µM [rising, partial curve, poor fit]. Regarding `CCOc1cc(S(=O)(=O)n2ccnc2)ccc1Br`, the cell number change worked out at 32.4%. In addition, the concentration at half-maximal activity (AC50) under setting [1] was 2.06 µM [rising, partial curve, poor fit]. Under setting [2], the AC50 was 16.4 µM [rising, partial curve]. Take `COc1ccccc1CNC(=O)CCNS(=O)(=O)c1cc(Br)cnc1N`: the cell number change was 39.9%. The AC50 under setting [1] is 16.4 µM [rising, single point]. For the same compound, under setting [2], the AC50 was 0.164 µM [rising, full curve, poor fit]. Consider `CCOc1cc(/C=C/c2ccc3cccc([N+](=O)[O-])c3n2)ccc1OCC(=O)N(C)C`, for which the concentration at half-maximal activity (AC50) reads like this: under setting [1], 0.651 µM [rising, partial curve]; under setting [2], 0.58 µM [rising, full curve].

For the compound `COc1ccc(NC(=O)c2c(F)cccc2F)cc1S(=O)(=O)Nc1ccc(Br)cc1`, the cell number change is -16.7%. Also, the AC50 under setting [2] is 4.11 µM [rising, partial curve]. Turning to `O=C(NNC(=O)c1ccc(Cl)c(S(=O)(=O)Nc2ccc(Cl)cc2)c1)c1ccc(=O)[nH]c1`, the cell number change was -31.3%. Besides, under setting [1], the AC50 was 5.8 µM [falling, full curve].

For `COc1ccc(N2C(=O)C(C)C(Cc3ccc(C)cc3)C2=O)cc1` (configuration not stated), the cell number change is 10.9%. In addition, the concentration at half-maximal activity (AC50) under setting [2] was 18.4 µM [falling, single point]. Take `O=C(O)CCN1C(=O)NC2(CCCC2)C1=O`: the cell number change is 19.9%. The AC50 under setting [2] is 0.0058 µM [falling, full curve, poor fit]. Regarding `CCOc1ccc(NC(=O)c2cc3c(C)nc4ccccc4c3o2)cc1`, the half-maximal activity concentration (AC50) under setting [2] was 18.4 µM [rising, partial curve, poor fit]. Take `CC(C)C(c1nnnn1C1CCCC1)N1c2ccccc2CC1C` (configuration not stated): the AC50 was 0.92 µM [rising, partial curve] under setting [1] and 0.731 µM [rising, single point] under setting [2]. As for `Cc1cc(N2CCOCC2)nc2ccc(NC(=O)CCC(=O)N3CCN(c4ccc(F)cc4)CC3)cc12`, the cell number change is 28.6%. Also, the AC50 under setting [2] is 29.1 µM [rising, single point].
